From US20110003888A1, “HOPS EXTRACTION METHODS AND MIXTURES” (Bioactives, Inc., priority 2007, published 2011)

Experiment: in vitro
Conditions: human, Caco-2
Description: To test the permeability of xanthohumol across Caco-2 cell monolayers, Caco-2 cell monolayers were grown to confluence on collagen-coated, microporous, polycarbonate membranes in 12-well Costar Transwell® plates. Details of the plates and their certification are shown below in Table 3. The test article was also the aqueous xanthohumol formulation, and the dosing concentration was 2 μM in the assay buffer (HBSSg) as in the previous example. Cell monolayers were dosed on the apical side (A-to-B) or basolateral side (B-to-A) and incubated at 37° C. with 5% CO2 in a humidified incubator. Samples were taken from the donor chamber at 120 minutes, and samples from the receiver chamber were collected at 60 and 120 minutes. Each determination was performed in duplicate. Lucifer yellow permeability was also measured for each monolayer after being subjected to the test article to ensure no damage was inflicted to the cell monolayers during the permeability experiment. All samples were assayed for Xanthohumol by LC/MS/MS using electrospray ionization. The apparent permeability (Papp), and percent recovery were calculated as described above.

CC(C)NCC(O)COc1ccc(CC(N)=O)cc1 (stereo not shown) [Atenolol]
Papp: 0.3 ×10⁻⁶ cm/s
